Experimental findings from paper PMC12857203 are described below.

The target in the test is T1, SnRK2.3 split YFP fusion (Arabidopsis thaliana) (UniProt Q39193).
T1 sequence: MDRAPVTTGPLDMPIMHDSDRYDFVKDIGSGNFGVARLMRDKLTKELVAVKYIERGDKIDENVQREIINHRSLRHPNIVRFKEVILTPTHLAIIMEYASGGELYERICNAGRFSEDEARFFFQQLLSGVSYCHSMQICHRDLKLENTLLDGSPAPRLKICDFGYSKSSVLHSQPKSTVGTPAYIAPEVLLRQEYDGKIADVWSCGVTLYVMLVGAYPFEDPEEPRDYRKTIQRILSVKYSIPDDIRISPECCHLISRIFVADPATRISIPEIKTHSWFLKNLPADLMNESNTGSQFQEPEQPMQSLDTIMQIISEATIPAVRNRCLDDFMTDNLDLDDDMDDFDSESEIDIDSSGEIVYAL
In words: split reporter; BiFC with nYFP and cYFP fusions in N. benthamiana leaves infiltrated with Agrobacterium (with P19); fluorescence scored 2 to 4 d later.

These are yes or no findings as the source states them, for the method shown. In cells and extracts the contact can be indirect. A result given as binding can be weak or reduced; the word gives no strength. Tags and fused reporters may be left off the sequences shown.

“AFP1 A domain split YFP fusion (Arabidopsis thaliana) (domain or fragment)”: the binding entry is listed as “binds”.

On to “AFP1 B domain split YFP fusion (Arabidopsis thaliana) (domain or fragment)”, for which the binding entry is “binds”.
